PubChem BioAssay AID1159599 – NIAID, 2016
The whole screen tested 756 reagents; this is an unselected part. 130 of them (17%) count as active. 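Calls are two-sided: actives include siRNAs that raised the Tnf reporter as well as ones that lowered it.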 No sequences are given here. Not given: the amount of reagent.

Screen: 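Mouse macrophage genes that control Tnf-alpha promoter output upon LPS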
System: mouse RAW264.7 G9 macrophage reporter clone cells
Reagent: single siRNA against mouse genes
Duration: 48 to 72 h after siRNA transfection, LPS for the last 16 h
Treatment: LPS (Salmonella minnesota R595), 16 h before fixation; dose not stated
Measurement: 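Nuclear mCherry from a Tnf promoter reporter imaged after LPS, background removed, robust z-score from per-plate median and MAD, averaged over replicates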
Scale: Tnf reporter z-score: higher = stronger Tnf promoter reporter signal after LPS
Rule for the call: 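Active when the replicate-mean Tnf reporter z-score is about -1.5 or lower, or about 1.5 or higher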
Calls: active = strong change either way; inactive = little change

The opening 3 entries as a preview:
{"Target gene":"Tbkbp1","PubChem SID":"SID303071608","Tnf reporter z-score, replicate mean":0.449,"Call":"inactive"}
{"Target gene":"Tbkbp1","PubChem SID":"SID303071609","Tnf reporter z-score, replicate mean":-0.559,"Call":"inactive"}
{"Target gene":"Tbkbp1","PubChem SID":"SID303071610","Tnf reporter z-score, replicate mean":0.649,"Call":"inactive"}

Results, repeating the preview:
{"Target gene":"Tbkbp1","PubChem SID":"SID303071608","Tnf reporter z-score, replicate mean":0.449,"Call":"inactive"}
{"Target gene":"Tbkbp1","PubChem SID":"SID303071609","Tnf reporter z-score, replicate mean":-0.559,"Call":"inactive"}
{"Target gene":"Tbkbp1","PubChem SID":"SID303071610","Tnf reporter z-score, replicate mean":0.649,"Call":"inactive"}
{"Target gene":"Tbkbp1","PubChem SID":"SID303071611","Tnf reporter z-score, replicate mean":0.153,"Call":"inactive"}
{"Target gene":"Tbkbp1","PubChem SID":"SID303071612","Tnf reporter z-score, replicate mean":0.409,"Call":"inactive"}
{"Target gene":"Tbkbp1","PubChem SID":"SID303071613","Tnf reporter z-score, replicate mean":-0.218,"Call":"inactive"}
{"Target gene":"Dab2ip","PubChem SID":"SID303071926","Tnf reporter z-score, replicate mean":0.163,"Call":"inactive"}
{"Target gene":"Dab2ip","PubChem SID":"SID303071927","Tnf reporter z-score, replicate mean":-0.685,"Call":"inactive"}
{"Target gene":"Dab2ip","PubChem SID":"SID303071928","Tnf reporter z-score, replicate mean":1.41,"Call":"inactive"}
{"Target gene":"Dab2ip","PubChem SID":"SID303071929","Tnf reporter z-score, replicate mean":-1.24,"Call":"inactive"}
{"Target gene":"Dab2ip","PubChem SID":"SID303071930","Tnf reporter z-score, replicate mean":-1.4,"Call":"inactive"}
{"Target gene":"Dab2ip","PubChem SID":"SID303071931","Tnf reporter z-score, replicate mean":1.06,"Call":"inactive"}
{"Target gene":"Tlr5","PubChem SID":"SID303071218","Tnf reporter z-score, replicate mean":-0.369,"Call":"inactive"}
{"Target gene":"Tlr5","PubChem SID":"SID303071219","Tnf reporter z-score, replicate mean":1.83,"Call":"active"}
{"Target gene":"Tlr5","PubChem SID":"SID303071220","Tnf reporter z-score, replicate mean":-0.104,"Call":"inactive"}
{"Target gene":"Tlr5","PubChem SID":"SID303071221","Tnf reporter z-score, replicate mean":1.01,"Call":"inactive"}
{"Target gene":"Tlr5","PubChem SID":"SID303071222","Tnf reporter z-score, replicate mean":-0.668,"Call":"inactive"}
{"Target gene":"Tlr5","PubChem SID":"SID303071223","Tnf reporter z-score, replicate mean":-0.369,"Call":"inactive"}
{"Target gene":"Mapk14","PubChem SID":"SID303071482","Tnf reporter z-score, replicate mean":0.0571,"Call":"inactive"}
{"Target gene":"Mapk14","PubChem SID":"SID303071483","Tnf reporter z-score, replicate mean":0.85,"Call":"inactive"}
{"Target gene":"Mapk14","PubChem SID":"SID303071484","Tnf reporter z-score, replicate mean":0.27,"Call":"inactive"}
{"Target gene":"Mapk14","PubChem SID":"SID303071485","Tnf reporter z-score, replicate mean":-0.341,"Call":"inactive"}
{"Target gene":"Mapk14","PubChem SID":"SID303071486","Tnf reporter z-score, replicate mean":-0.438,"Call":"inactive"}
{"Target gene":"Mapk14","PubChem SID":"SID303071487","Tnf reporter z-score, replicate mean":-0.334,"Call":"inactive"}
{"Target gene":"Ifnar2","PubChem SID":"SID303071812","Tnf reporter z-score, replicate mean":-0.767,"Call":"inactive"}
{"Target gene":"Ifnar2","PubChem SID":"SID303071813","Tnf reporter z-score, replicate mean":-0.799,"Call":"inactive"}
{"Target gene":"Ifnar2","PubChem SID":"SID303071814","Tnf reporter z-score, replicate mean":-0.101,"Call":"inactive"}
{"Target gene":"Ifnar2","PubChem SID":"SID303071815","Tnf reporter z-score, replicate mean":0.166,"Call":"inactive"}
{"Target gene":"Ifnar2","PubChem SID":"SID303071816","Tnf reporter z-score, replicate mean":0.341,"Call":"inactive"}
{"Target gene":"Ifnar2","PubChem SID":"SID303071817","Tnf reporter z-score, replicate mean":-0.742,"Call":"inactive"}
{"Target gene":"Fadd","PubChem SID":"SID303071560","Tnf reporter z-score, replicate mean":-0.307,"Call":"inactive"}
{"Target gene":"Fadd","PubChem SID":"SID303071561","Tnf reporter z-score, replicate mean":-2.25,"Call":"active"}
{"Target gene":"Fadd","PubChem SID":"SID303071562","Tnf reporter z-score, replicate mean":-0.787,"Call":"inactive"}
{"Target gene":"Fadd","PubChem SID":"SID303071563","Tnf reporter z-score, replicate mean":0.743,"Call":"inactive"}
{"Target gene":"Fadd","PubChem SID":"SID303071564","Tnf reporter z-score, replicate mean":-0.888,"Call":"inactive"}
{"Target gene":"Fadd","PubChem SID":"SID303071565","Tnf reporter z-score, replicate mean":0.145,"Call":"inactive"}
{"Target gene":"Atf2","PubChem SID":"SID303071770","Tnf reporter z-score, replicate mean":-0.937,"Call":"inactive"}
{"Target gene":"Atf2","PubChem SID":"SID303071771","Tnf reporter z-score, replicate mean":-1.11,"Call":"inactive"}
{"Target gene":"Atf2","PubChem SID":"SID303071772","Tnf reporter z-score, replicate mean":-0.353,"Call":"inactive"}
{"Target gene":"Atf2","PubChem SID":"SID303071773","Tnf reporter z-score, replicate mean":1.57,"Call":"active"}
{"Target gene":"Atf2","PubChem SID":"SID303071774","Tnf reporter z-score, replicate mean":-2.17,"Call":"active"}
{"Target gene":"Atf2","PubChem SID":"SID303071775","Tnf reporter z-score, replicate mean":0.304,"Call":"inactive"}
{"Target gene":"Traf6","PubChem SID":"SID303071332","Tnf reporter z-score, replicate mean":-0.35,"Call":"inactive"}
{"Target gene":"Traf6","PubChem SID":"SID303071333","Tnf reporter z-score, replicate mean":-0.74,"Call":"inactive"}
{"Target gene":"Traf6","PubChem SID":"SID303071334","Tnf reporter z-score, replicate mean":-1.33,"Call":"inactive"}
{"Target gene":"Traf6","PubChem SID":"SID303071335","Tnf reporter z-score, replicate mean":0.187,"Call":"inactive"}
{"Target gene":"Traf6","PubChem SID":"SID303071336","Tnf reporter z-score, replicate mean":-0.418,"Call":"inactive"}
{"Target gene":"Traf6","PubChem SID":"SID303071337","Tnf reporter z-score, replicate mean":-0.834,"Call":"inactive"}
{"Target gene":"Ube2n","PubChem SID":"SID303071326","Tnf reporter z-score, replicate mean":-0.108,"Call":"inactive"}
{"Target gene":"Ube2n","PubChem SID":"SID303071327","Tnf reporter z-score, replicate mean":-1.05,"Call":"inactive"}
{"Target gene":"Ube2n","PubChem SID":"SID303071328","Tnf reporter z-score, replicate mean":0.0827,"Call":"inactive"}
{"Target gene":"Ube2n","PubChem SID":"SID303071329","Tnf reporter z-score, replicate mean":-0.466,"Call":"inactive"}
{"Target gene":"Ube2n","PubChem SID":"SID303071330","Tnf reporter z-score, replicate mean":-0.167,"Call":"inactive"}
{"Target gene":"Ube2n","PubChem SID":"SID303071331","Tnf reporter z-score, replicate mean":-0.82,"Call":"inactive"}
{"Target gene":"Tlr7","PubChem SID":"SID303071230","Tnf reporter z-score, replicate mean":-0.987,"Call":"inactive"}
{"Target gene":"Tlr7","PubChem SID":"SID303071231","Tnf reporter z-score, replicate mean":-1.33,"Call":"inactive"}
{"Target gene":"Tlr7","PubChem SID":"SID303071232","Tnf reporter z-score, replicate mean":-0.452,"Call":"inactive"}
{"Target gene":"Tlr7","PubChem SID":"SID303071233","Tnf reporter z-score, replicate mean":0.385,"Call":"inactive"}
{"Target gene":"Tlr7","PubChem SID":"SID303071234","Tnf reporter z-score, replicate mean":-0.152,"Call":"inactive"}
{"Target gene":"Tlr7","PubChem SID":"SID303071235","Tnf reporter z-score, replicate mean":0.336,"Call":"inactive"}
